Reference: patent US20210299283A1 (SANFORD BURNHAM PREBYS MEDICAL DISCOVERY INSTITUTE, published 2021)
Results are given in words; binding and its absence hold for the method and conditions named. Some entries that bind do so weakly or less than the wild type.

What was measured:
[1] = molecular target: T1, Human CTGF recombinant protein (Affymetrix Cat #14-8503-80) (human) (UniProt P29279); assay: ELISA, non-labeled DAG (0.5 mM) competing with labelled DAG on recombinant human CTGF
T1 sequence (looked up): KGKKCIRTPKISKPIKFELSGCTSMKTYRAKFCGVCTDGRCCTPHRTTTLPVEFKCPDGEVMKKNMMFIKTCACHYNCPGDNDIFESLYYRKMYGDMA

[2] = molecular target: T1, Human CTGF recombinant protein (Affymetrix Cat #14-8503-80) (human); assay: ELISA, non-labeled DAG (0.5 mM) competing with FAM-DAG on recombinant human CTGF (FIG. 10)
[3] = molecular target: T1, Human CTGF recombinant protein (Affymetrix Cat #14-8503-80) (human); assay: ELISA competition on recombinant human CTGF, as retold in the discussion

binding [1]: binds
binding [2]: binds
binding [3]: binds
B1: non-labeled DAG peptide (…) (peptide)
peptide: CDAGRKQKC
modifications: no label; synthesized on rink amide resin; described as a cyclic peptide
